Laboratory results reported in the supplement of paper PMC12009310.
Counter-ions that a name gives are not always drawn. ± gives the standard deviation of the averaged measurements. This is one part of the list. Part of the spread comes from offsets between plates or batches.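 The cells are a mouse kidney inner medullary collecting duct line, silenced either for the ciliary gene Rpgrip1l or with a non-targeting control siRNA.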

Test system: mIMCD3
Experiment: robust z score of cilia incidence (% cells with single cilium) vs plate controls; higher = more ciliated cells
Conditions: 10 µM; 48 h; siRNA: siScr

Row | Structure (SMILES) | robust z score of cilia incidence
1 | CC(C)NCC(O)c1ccc2ccccc2c1 (stereo not given) [Pronethalol hydrochloride] | -0.158 ± 3.6
2 | O=c1[nH]ccc2c(S(=O)(=O)N3CCCNCC3)cccc12 [HA 1100 hydrochloride] | 6.32 ± 3.9
3 | O=C(CCCCCN1C(=O)c2cccc3cccc(c23)C1=O)NO [Scriptaid] | -33.3 ± 42
4 | CN(C(=O)c1c(O)c2ccccc2n(C)c1=O)c1ccccc1 [Linomide] | 2.47 ± 3.5
5 | CC12CC3CC(C)(C1)CC(N)(C3)C2 [Memantine hydrochloride] | -2.65 ± 0.19
6 | CC(Oc1ccc(O)cc1)(P(=O)(O)O)P(=O)(O)O | 0.105 ± 2.8
7 | CN(C)C(=O)C(CCN1CCC(O)(c2ccc(Cl)cc2)CC1)(c1ccccc1)c1ccccc1 [Loperamide hydrochloride] | -65.2 ± 7.9
8 | COc1nc(C)nc(Cl)c1NC1=NCCN1 [Moxonidine hydrochloride] | -11.3 ± 14
9 | CC(C(=O)O)c1ccc(-c2ccccc2)c(F)c1 (stereo not given) [Flurbiprofen] | -21 ± 9.6
10 | CCS(=O)(=O)N(C)[C@H]1c2cc(C#N)ccc2OC(C)(C)[C@@H]1O (racemic) [Chromanol 293B] | 0.831 ± 0.23
11 | COC(=O)/C=C/c1cc(O)ccc1O [Methyl 2,5-dihydroxycinnamate] | -8.86 ± 0.44
12 | O=C(O)CCCc1ccccc1 [sodium 4-Phenylbutyrate] | 0.49 ± 1.9
13 | CC(C)C(=O)c1c(C(C)C)nn2ccccc12 [Ibudilast] | -8.21 ± 5.6
14 | CC(=Cc1ccc(C(=O)O)cc1)c1ccc2c(c1)C(C)(C)CCC2(C)C | -11.9 ± 5.5
15 | N#Cc1ccc(NCCNCC(=O)N2CCC[C@H]2C#N)nc1 [NVP DPP 728 dihydrochloride] | -2.02 ± 3.3

For reference, two of the compounds above:
Row | Structure (SMILES) | robust z score of cilia incidence
4 | CN(C(=O)c1c(O)c2ccccc2n(C)c1=O)c1ccccc1 [Linomide] | 2.47 ± 3.5
5 | CC12CC3CC(C)(C1)CC(N)(C3)C2 [Memantine hydrochloride] | -2.65 ± 0.19
